Results are given in words; binding and its absence hold for the method and conditions named. Binding seen in cells or lysates may run through a third protein. Some binding calls cover weakened binding; strength is not graded here. Tags and fused reporters may be left off the sequences shown.
Molecular target: T1, Flag-PHB (UniProt P35232)
T1 sequence: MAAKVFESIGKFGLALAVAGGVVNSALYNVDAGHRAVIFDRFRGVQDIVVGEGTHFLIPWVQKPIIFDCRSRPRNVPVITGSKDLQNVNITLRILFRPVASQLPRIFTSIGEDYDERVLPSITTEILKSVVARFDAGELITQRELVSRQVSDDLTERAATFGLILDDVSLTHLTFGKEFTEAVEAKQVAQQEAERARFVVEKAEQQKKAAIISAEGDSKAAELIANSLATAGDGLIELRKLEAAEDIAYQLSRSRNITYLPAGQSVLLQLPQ
Experiment: co-IP; lysates of transfected cells precleared with IgG and protein A/G Sepharose beads, flag antibody overnight at 4°C, protein A/G Sepharose beads 4 h, washed thrice with lysis buffer, immunoblotting

- binding: binds
B1: PTPLAD1, endogenous (protein, UniProt Q9P035 1-362)
chain: MENQVLTPHVYWAQRHRELYLRVELSDVQNPAISITENVLHFKAQGHGAKGDNVYEFHLEFLDLVKPEPVYKLTQRQVNITVQKKVSQWWERLTKQEKRPLFLAPDFDRWLDESDAEMELRAKEEERLNKLRLESEGSPETLTNLRKGYLFMYNLVQFLGFSWIFVNLTVRFCILGKESFYDTFHTVADMMYFCQMLAVVETINAAIGVTTSPVLPSLIQLLGRNFILFIIFGTMEEMQNKAVVFFVFYLWSAIEIFRYSFYMLTCIDMDWKVLTWLRYTLWIPLYPLGCLAEAVSVIQSIPIFNETGRFSFTLPYPVKIKVRFSFFLQIYLIMIFLGLYINFRHLYKQRRRRYGQKKKKIH

Reference: paper PMC11008263
